Test results as given in PubChem BioAssay AID1671190 (National Center for Advancing Translational Sciences (NCATS), 2021).
Screen size: about 580,000 compounds; about 6,100 (1.1%) were called active. The inconclusive results got no clear call from the source; some entries with a clear call stand among them for comparison. The call rests on the fitted dose curve; in most records, active means well fitted inhibition curve with a large enough effect; inconclusive means small, poorly fitted or top-dose-only effect, or another doubt; inactive means no such curve, though single readings can be large or run the other way. A potency beside an inconclusive call is a rough fit, not a confirmed value.

Sequences of proteins named here, by UniProt entry; tags and fusion partners are left off. A change or cut given only in a name is not applied to a line headed by its entry.
UniProt P18054: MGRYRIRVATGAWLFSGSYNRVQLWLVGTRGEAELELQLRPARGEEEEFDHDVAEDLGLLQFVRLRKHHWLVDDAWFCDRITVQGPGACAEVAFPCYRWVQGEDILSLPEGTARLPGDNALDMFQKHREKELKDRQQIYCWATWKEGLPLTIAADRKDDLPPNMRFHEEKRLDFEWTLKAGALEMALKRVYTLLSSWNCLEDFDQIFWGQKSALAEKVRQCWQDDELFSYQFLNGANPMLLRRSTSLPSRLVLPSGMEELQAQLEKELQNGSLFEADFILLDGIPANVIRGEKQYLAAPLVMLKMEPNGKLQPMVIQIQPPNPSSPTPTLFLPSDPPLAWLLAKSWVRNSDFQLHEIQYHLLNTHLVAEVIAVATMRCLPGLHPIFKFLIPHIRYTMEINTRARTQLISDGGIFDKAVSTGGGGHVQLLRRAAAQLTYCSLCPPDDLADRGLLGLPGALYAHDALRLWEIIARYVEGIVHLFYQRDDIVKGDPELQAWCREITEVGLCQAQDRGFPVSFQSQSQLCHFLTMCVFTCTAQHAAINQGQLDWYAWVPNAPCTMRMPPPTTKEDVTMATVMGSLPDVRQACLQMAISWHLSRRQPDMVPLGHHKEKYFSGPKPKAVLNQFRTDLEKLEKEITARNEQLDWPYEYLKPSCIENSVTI

target: Polyunsaturated fatty acid lipoxygenase ALOX12 (Homo sapiens) (UniProt P18054); test: Primary qHTS assay for inhibitors of human arachidonate 12S-lipoxygenase (ALOX12): Round 2; settings: purified 12hLO, xylenol orange hydroperoxide absorbance; activity change, negative = inhibition: at 108 µM (top of the series) unless noted
Outline: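 Purified human 12hLO (150 nM final) in 25 mM Hepes, 0.01% Triton X-100, pH 7.0 was preincubated 15 min at room temperature with compound. Then 40 uM arachidonic acid was added, 30 min. Hydroperoxide was read by Fe-XO absorbance ratio 573/405 nm.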
On the % scale 0 is the no-effect control and ±100 the full control effect; potency means the concentration at half of the fitted maximal effect.

Compound	activity change, negative = inhibition	Potency
CN(C)Cc1nnc(C2CC(NC(=O)c3ccccc3-c3ncn[nH]3)C2)n1C (configuration not stated)	inactive: -21.5%	–
Cc1ccc(C)c(/C=C2\N=C(c3ccccc3F)OC2=O)c1	–	inconclusive: 89.1 µM [inhibitor, single point]
NC(=O)c1ccc(NC(=O)CCc2ncc(-c3c(F)cccc3F)o2)cc1	–	inconclusive: 63.1 µM [inhibitor, partial curve, poor fit]
COc1cccc(CN2CCC3(CC2)C(OC)CN3c2cccc(F)c2)n1 (configuration not stated)	inactive: 66.8%	–
CNC(=O)C[C@H]1C(=O)N(c2ccccc2)C[C@@H]1CSC	–	inconclusive: 112 µM [inhibitor, single point]
COc1ccc(OC)c(N2Cc3ccccc3C2)c1	–	inconclusive: 14.1 µM [inhibitor, partial curve, poor fit]
O=C(NC(C(=O)c1ccccc1)N1CCCCC1)c1cccs1 (configuration not stated)	inactive: -25.3%	–
CC1(C(=O)NCc2ccco2)CCN1C(=O)C1(c2ccccc2)CC1 (configuration not stated)	–	inconclusive: 100 µM [inhibitor, single point]
Cc1ccc(Cn2c(C3CCN(C(=O)c4ccc(C)c(C)c4)CC3)n[nH]c2=O)cc1	–	inconclusive: 50.1 µM [inhibitor, partial curve]
O=C(O)C(=O)N1CCOCC1	–	inconclusive: 2.24 µM [inhibitor, full curve, poor fit]
CCCCCn1c(CN2CCN(c3cc(Cl)ccc3C)CC2)nc2c1c(=O)[nH]c(=O)n2C	inactive: -15.6%	–
CCOC(=O)c1sc(=NC(=O)c2ccco2)n(C)c1C	inactive: -0.398%	–
O=C(O)CCc1cc2n(n1)CCCN(Cc1cn[nH]c1C(=O)O)C2	–	inconclusive: 2 µM [inhibitor, full curve]
Cc1ccncc1-c1c(C)nn2c1N(C(=O)Cc1ccc(Cl)cc1)CCC2	inactive: -6.74% [at 176 µM]	–
O=C(CSC1CCCCC1)c1ccc(O)cc1O	–	active: 44.7 µM
O=C(CSc1nnc(C2CC2)n1Cc1ccccc1)c1ccccc1	–	inconclusive: 79.4 µM [inhibitor, partial curve, poor fit]
CCOc1ccc(N2C(=O)CC(NC3CCCCNC3=O)C2=O)cc1 (configuration not stated)	–	inconclusive: 2.82 µM [inhibitor, full curve, poor fit]
CN1CCN(c2ncc3nc(-c4cccs4)c(=O)n(C[C@H]4CCCO4)c3n2)CC1	–	inconclusive: 31.6 µM [inhibitor, single point]
CC1(C)[C@H](Cc2cc(CN3CCN(c4ccccc4)CC3)on2)C[C@@H]1NC(=O)Nc1ccc(F)cc1	–	inconclusive: 89.1 µM [inhibitor, partial curve, poor fit]
O=C(c1cc(COc2ccc(F)cc2Cl)on1)N1CCCCCCC1	inactive: 2.98%	–
Oc1ccc(Cl)cc1C=NCc1ccc(F)cc1	–	inconclusive: 31.6 µM [inhibitor, single point]
O=C(O)c1cc(-c2ccccn2)nc2ccc(Cl)cc12	inactive: -9.31%	–
C[C@H](NC(=O)C1CCN(S(=O)(=O)c2ccccc2)CC1)C(=O)NCc1ccc(Cl)cc1Cl	–	inconclusive: 10 µM [inhibitor, partial curve, poor fit]
Cc1cccc(OCC(C)CN2CCC(C(O)(c3ccccc3)c3ccccc3)CC2)c1 (configuration not stated)	–	inconclusive: 44.7 µM [inhibitor, partial curve, poor fit]

Shown as comma-separated lines: part of the list above
Compound,"activity change, negative = inhibition",Potency
O=C(NC(C(=O)c1ccccc1)N1CCCCC1)c1cccs1 (configuration not stated),inactive: -25.3%,–
O=C(c1cc(COc2ccc(F)cc2Cl)on1)N1CCCCCCC1,inactive: 2.98%,–

More compounds:

Compound	activity change, negative = inhibition	Potency
COc1ccc(C2=CC(c3ccc(N(C)C)cc3)n3nnnc3N2)cc1 (configuration not stated)	–	inconclusive: 56.2 µM [inhibitor, partial curve, poor fit]
Clc1ccc(OCCCNCc2ccccc2)c2ccccc12	inactive: -85.9%	–
O=C(O)COCC(=O)N1CC[C@H](c2nc3ccccc3[nH]2)C1	–	inconclusive: 11.2 µM [inhibitor, full curve]
Cc1cc(C)n(CCC(=O)NC2CCCN(c3cc(-c4ccc(F)cc4)[nH]n3)C2)n1 (configuration not stated)	inactive: 27.3%	–
CCc1ccc(NC(=O)CSc2n[nH]c(C)c2[N+](=O)[O-])cc1	inactive: -13.9%	–
Cc1c(CNC2CCCCCC2)c(C(=O)O)c(C)n1Cc1c(F)cccc1Cl	–	inconclusive: 56.2 µM [inhibitor, partial curve, poor fit]
CCN(CC)S(=O)(=O)c1ccc(NC(=O)Cc2cccs2)cc1	–	inconclusive: 44.7 µM [inhibitor, partial curve, poor fit]
CC(=O)c1c(O)cc(C)n(-c2ccc(F)cc2)c1=O	–	inconclusive: 50.1 µM [inhibitor, partial curve, poor fit]
Cn1c(=S)[nH]c2scc(-c3cccs3)c2c1=O	–	inconclusive: 25.1 µM [inhibitor, partial curve, poor fit]
CCOc1ccccc1NC(=O)Nc1ccc(-c2nnc3n2CCCC3)cc1	inactive: 18.9%	–
O=S(=O)(Nc1ccc(NS(=O)(=O)c2ccccc2)c(Cl)c1)c1ccccc1	inactive: -13.7%	–
CC1(C(=O)Nc2ccccc2)Cc2c(-c3cccc(C(N)=O)c3)ccnc2O1 (configuration not stated)	inactive: 11.7%	–
CCC(=O)Oc1cc2c(c3oc(=O)cc(-c4ccccc4)c13)CCC(C)(C)O2	inactive: 9.38%	–
O=C1NCCCCCCN(Cc2ccncc2)[C@@H]2CN(S(=O)(=O)c3ccc4c(c3)CCC4)CC[C@H]12	–	inconclusive: 28.2 µM [inhibitor, full curve]
COc1cccc(-c2cc(C(=O)O)c3cc4ccccc4cc3n2)c1OC	inactive: -18.3%	–
CC1=C(C(=O)OC(C)C)C(c2ccc([N+](=O)[O-])cc2)N2C(CC(=O)N3CCOCC3)=CSC2=N1 (configuration not stated)	inactive: 11%	–
CCc1ccc2[nH]c(=O)c(C3C(C#N)=C(N)Oc4c3ccc3cccnc43)cc2c1 (configuration not stated)	inactive: -29.7%	–
O=C(Nc1ccccc1)c1nn(C2CCS(=O)(=O)C2)c2c1CCCC2 (configuration not stated)	inactive: 8.74%	–
FC(F)(F)c1cccc(Nc2nc(CN3CCOCC3)nc3sc4c(c23)CCCC4)c1	inactive: 36%	–
CC1Cc2ccccc2N1C(=O)CN1CCC(n2nnc3cc(C(F)(F)F)ccc32)CC1 (configuration not stated)	inactive: 14%	–
Cc1ccccc1C(=O)Nc1nc2c(s1)CC(C(C)(C)C)CC2 (configuration not stated)	–	inconclusive: 44.7 µM [inhibitor, partial curve, poor fit]
COCCN1CCC(CNC(C)=O)CC1	inactive: -25.6%	–
COc1ccc(-c2csc(-c3cc4c([nH]c3=O)CC(c3ccco3)CC4=O)n2)cc1F (configuration not stated)	–	inconclusive: 2 µM [inhibitor, full curve, poor fit]
